# Data as given in patent publication US20150133388A1, “ACETYLATED CRYSTALLIN POLYPEPTIDES AND MIMETICS THEREOF AS THERAPEUTIC AGENTS” (Case Western Reserve University, priority 2012, published 2015).
# Not every detail of the peptide structures is certain; ends, links or a residue may be inferred. Residues, ends and D or L forms follow the SMILES beside them.
# How the values were obtained:
# CHO cells = assay: Hyperthermia-induced apoptosis in CHO cells (Hoechst stain); type: cell-based, Chinese hamster; conditions: at 1, 2, and 4 μg/ml
# Protocol: (§1) Human lens epithelial cells (HLE) were isolated from the lens of a donor and cultured in DMEM supplemented with 10% FBS as previously described for mouse lens epithelial cells. Cells between passages 5 and 6 were used for the experiments. Chinese hamster ovary (CHO) cells were cultured in Ham's F12 medium. The α-crystallin peptides were mixed with a cationic lipid, BIOPORTER (BP), according to the manufacturer's instructions (Polyplus transfection reagent, Illkirch, France). When the cultures reached 70-80% confluence, the cells were treated with BP either alone or with the peptides in serumfree medium and incubated for 4 h at 37° C. in a humidified 5% CO2 atmosphere. The cells were then washed with PBS and incubated at 43° C. for 1 h (thermal stress), followed by incubation at 37° C. for 16 h for recovery. The percentage of apoptotic cells was determined by staining the cells with Hoechst. Cells incubated at 37° C. without thermal stress were used as controls.
# [1] = system: Human lens epithelial cells (HLE); assay: Hyperthermia-induced apoptosis in HLE cells (Hoechst stain); type: cell-based; conditions: 4 μg/ml in BP 4 h, 43° C. 1 h; without peptide nearly 40%
# Protocol: as §1
# caspase-3 = assay: Caspase-3 activity in thermally stressed CHO cells; type: cell-based, Chinese hamster; conditions: 4 μg/ml
# Protocol: (§2) Cells were lysed in cell lysis buffer (Cell signaling), and lenses were homogenized in 50 mM Tris-buffered saline. Both buffers contained a protease inhibitor cocktail (1:100 dilution). An equal volume of a fluorogenic substrate solution[2× reaction buffer: 10 mM DTT and 50 μM Ac-DEVD-AFC (for caspase-3) or Ac-LEHDAFC (for caspase-9)] was added to each lysate. The lysates were then incubated for 2 h at 37° C. in the dark. The samples were analyzed with a […] spectrofluorometer (HORIBA Scientific, Edison, N.J.) at excitation/emission wavelengths 400/505 nm.
# caspase-9 = assay: Caspase-9 activity in thermally stressed CHO cells; type: cell-based, Chinese hamster; conditions: 4 μg/ml
# Protocol: as §2
# [2] = system: selenite-induced cataracts; assay: Selenite-induced cataract in rat pups (slit lamp); type: in vivo
# Protocol: (§3) Neonatal Sprague-Dawley rat pups (12 days old) were used for these experiments. The pups in the experimental groups received a single subcutaneous injection of sodium selenite (4 mg/Kg body weight) on day 12. Peptides diluted from a stock in sterile water (dissolved by adding 2 μl of 10 N NaOH to a 1.0 ml stock) were injected intraperitoneally (at 2.5, 5, or 10 μg/animal) 6 h prior to selenite injection (single injection). When multiple injections were performed, one pre-selenite injection was administered, as above, followed by four additional injections on four consecutive days after the sodium selenite injection. One group served as the control (no treatment) and another as the selenite control (no peptide injection). The lenses were examined on day 17 (when the pups had opened their eyes) using a slit lamp microscope (after dilating the pupil through topical application of tropicamide) and photographed. For hematoxylin and eosin (H & E) and TUNEL staining, eyes were fixed immediately after enucleation in a 10% buffered formalin solution overnight.
# lens protein aggregation = assay: Histology (H&E) of lens protein aggregation in selenite cataract; type: in vivo, rat; conditions: multiple injections 10 μg
# Protocol: as §3
# lens epithelial cells = assay: Lens epithelial cell apoptosis in selenite cataract (in situ TUNEL); type: in vivo, rat; conditions: multiple 10 μg injections
# Protocol: as §3
smiles,measurement,setting,value
CC(=O)NCCCC[C@H](NC(=O)[C@@H](NC(=O)[C@H](CCCCN)NC(=O)[C@H](CC(C)C)NC(=O)[C@H](CCC(=O)O)NC(=O)[C@H](CCC(=O)O)NC(=O)[C@@H]1CCCN1C(=O)[C@H](CO)NC(=O)[C@H](Cc1ccccc1)NC(=O)[C@H](Cc1c[nH]cn1)NC(=O)[C@H](CCCCN)NC(=O)[C@@H](NC(=O)[C@H](CC(=O)O)NC(=O)[C@H](CC(C)C)NC(=O)[C@H](CC(N)=O)NC(=O)[C@@H](NC(=O)[C@H](CO)NC(=O)[C@H](Cc1ccccc1)NC(=O)[C@H](CCCNC(=N)N)NC(=O)[C@@H](N)CC(=O)O)C(C)C)C(C)C)C(C)C)C(=O)N[C@H](C(=O)O)C(C)C [αB-acetyl peptide] (H-DRFSVNLDVKHFSPEELKVK(Ac)V-OH),more effective than the native peptide in inhibiting apoptosis,CHO cells,2-4%
same,rate of apoptosis after peptide pretreatment,[1],24%
same,inhibition of caspase-3 activity,caspase-3,78%
same,inhibition of caspase-9 activity,caspase-9,50%
same,inhibition of cataract development,[2]; multiple i.p. injections 2.5 μg/animal,mild cataract inhibition
same,inhibition of cataract development,[2]; multiple i.p. injections 5 μg/animal,significantly inhibited
same,inhibition of cataract development,[2]; multiple i.p. injections 10 μg/animal,significantly inhibited
same,inhibition of cataract development,[2]; single i.p. injection 2.5 μg/animal 6 h prior to selenite,ineffective
same,inhibition of cataract development,[2]; single i.p. injection 5 μg/animal 6 h prior to selenite,mild inhibition of cataracts
same,inhibition of cataract development,[2]; single i.p. injection 10 μg/animal 6 h prior to selenite,strongly inhibited cataract development
same,inhibition of protein aggregation in the lens center (H&E),lens protein aggregation,inhibited
same,inhibition of lens epithelial cell apoptosis (TUNEL),lens epithelial cells,inhibited apoptosis
